Results deposited as PubChem BioAssay AID652272 (Drosophila RNAi Screening Center, 2013).

- Test: 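Finding fly genes that regulate Hedgehog signal transduction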 (primary screen)
- Cells: Drosophila clone 8 (Cl8) cells
- Knock-down reagent: long dsRNA against Drosophila genes
- Read-out: 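Plate reader light from a firefly reporter under a ptc promoter fragment that responds to Hedgehog, with Renilla light as transfection reference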
- Reading the numbers: firefly Hh reporter signal: higher = more ptc reporter light; Renilla reference signal: higher = more Renilla control light
- Rule for the call: 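Hit when the z-score averaged over two replicates is under -2 or over +3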
- Calls: active = hit: reporter lowered or raised; inactive = not a hit
The screen tested about 21,000 reagents; below is an unselected part of those with a known target gene and a result. In the full data, 503 (2.4%) were called active. 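Raw plate light values, not normalised; calls rest on replicate z-scores that were not deposited; hits include reporter decreases as well as increases.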 Names joined by + are all predicted targets of the reagent. Not given: the amount of reagent, the time to read-out.

| firefly Hh reporter signal, replicate 1 | firefly Hh reporter signal, replicate 2 | firefly Hh reporter signal, replicate 3 | Renilla reference signal, replicate 1 | Renilla reference signal, replicate 2 | call | predicted target | amplicon |
| --- | --- | --- | --- | --- | --- | --- | --- |
| 1.48e5 | 94218 | – | 5827 | 3304 | inactive | Gen (XPG-like endonuclease) | DRSC09679 |
| 1.36e5 | 1.35e5 | – | 2749 | 3211 | inactive | Cyt-c1L (Cytochrome c1-like) | DRSC14860 |
| 84416 | 42144 | – | 2933 | 1046 | inactive | Su(var)2-10 (Suppressor of variegation 2-10) | DRSC07721 |
| 1.30e5 | 69379 | – | 3012 | 5592 | inactive | tweek | DRSC02433 |
| 97017 | 58324 | – | 2409 | 4609 | inactive | tweek | DRSC02434 |
| 61091 | 69924 | – | 2064 | 2349 | inactive | tweek | DRSC02785 |
| 64842 | 90743 | – | 2629 | 3625 | inactive | GM130 (Golgi matrix protein 130 kD) | DRSC04617 |
| 1.14e5 | 77046 | – | 2451 | 1636 | inactive | Hgsnat (Heparan-alpha-glucosaminide N-acetyltransferase) | DRSC18405 |
| 1.58e5 | 7.61e5 | 95739 | 4082 | 6299 | inactive | betaTry (betaTrypsin) | DRSC07582 |
| 1.09e5 | 96532 | – | 2023 | 2231 | inactive | sno (strawberry notch) | DRSC20378 |
| 5.88e5 | 2.34e5 | – | 27360 | 9096 | inactive | CG44000 + CG33995 + CG44001 | DRSC00853 |
| 1.32e5 | 1.38e5 | – | 6027 | 5588 | inactive | CG44000 + CG33995 + CG44001 | DRSC02898 |
| 94304 | 73757 | – | 2676 | 5538 | inactive | CG13392 | DRSC02262 |
| 77770 | 47008 | – | 3977 | 2090 | inactive | CG31954 | DRSC00580 |
| 2.71e5 | – | – | 5956 | – | inactive | Ac78C (Adenylyl cyclase 78C) | DRSC11467 |
| 69514 | 1.10e5 | – | 1901 | 3140 | inactive | Ac78C (Adenylyl cyclase 78C) | DRSC11602 |
| 81572 | 1.43e5 | – | 2490 | 4032 | inactive | Ac78C (Adenylyl cyclase 78C) | DRSC11619 |
| 97362 | 1.47e5 | – | 3949 | 4237 | inactive | CG7800 | DRSC16315 |
| 1.18e5 | 87812 | – | 5609 | 3600 | inactive | CG8195 | DRSC07103 |

Already shown: 3 of the entries above.
| firefly Hh reporter signal, replicate 1 | firefly Hh reporter signal, replicate 2 | firefly Hh reporter signal, replicate 3 | Renilla reference signal, replicate 1 | Renilla reference signal, replicate 2 | call | predicted target | amplicon |
| --- | --- | --- | --- | --- | --- | --- | --- |
| 1.32e5 | 1.38e5 | – | 6027 | 5588 | inactive | CG44000 + CG33995 + CG44001 | DRSC02898 |
| 94304 | 73757 | – | 2676 | 5538 | inactive | CG13392 | DRSC02262 |
| 77770 | 47008 | – | 3977 | 2090 | inactive | CG31954 | DRSC00580 |

More records:
| firefly Hh reporter signal, replicate 1 | firefly Hh reporter signal, replicate 2 | firefly Hh reporter signal, replicate 3 | Renilla reference signal, replicate 1 | Renilla reference signal, replicate 2 | call | predicted target | amplicon |
| --- | --- | --- | --- | --- | --- | --- | --- |
| 1.84e5 | 7.71e5 | 1.03e5 | 7744 | 44280 | inactive | bbc (bb in a boxcar) | DRSC06958 |
| 1.14e5 | – | – | 5203 | 3392 | inactive | CG13065 | DRSC09948 |
| 93851 | 52114 | – | 4186 | 2192 | inactive | CG8785 | DRSC07266 |
| 87120 | 1.84e5 | – | 3272 | 36073 | inactive | TMEM216 (Transmembrane protein 216) | DRSC16378 |
| 90588 | 54695 | – | 3872 | 2384 | inactive | Nt5c (5' nucleotidase C) | DRSC06711 |
| 53584 | 2.16e5 | – | 12084 | 5344 | inactive | mod(mdg4) (modifier of mdg4) | DRSC13474 |
| 46492 | 2.25e5 | – | 10274 | 5911 | inactive | mod(mdg4) (modifier of mdg4) | DRSC13475 |
| 50016 | 1.34e5 | – | 10368 | 3213 | inactive | mod(mdg4) (modifier of mdg4) | DRSC13478 |
| 44452 | 1.86e5 | – | 10068 | 4392 | inactive | mod(mdg4) (modifier of mdg4) | DRSC13479 |
| 7.71e5 | 2.23e5 | – | 44169 | 5613 | inactive | mod(mdg4) (modifier of mdg4) | DRSC15042 |
| 1.02e5 | 1.02e5 | – | 4017 | 4517 | inactive | mod(mdg4) (modifier of mdg4) | DRSC17000 |
| 98048 | 2.19e5 | – | 3398 | 8098 | inactive | CG11699 | DRSC19419 |
| 1.17e5 | 95062 | – | 2944 | 1607 | inactive | CG32533 | DRSC19443 |
| 85264 | 1.36e5 | – | 3153 | 5808 | inactive | CG32533 | DRSC19553 |
| 70901 | 80010 | – | 2902 | 1318 | inactive | CG11425 | DRSC11657 |
| 68720 | 64378 | – | 3719 | 2848 | inactive | NK7.1 | DRSC16755 |
| 1.03e5 | 1.48e5 | – | 3620 | 9312 | active | CCHa2-R (CCHamide-2 receptor) | DRSC04825 |
| 90412 | 62549 | – | 1876 | 5223 | inactive | CCHa2-R (CCHamide-2 receptor) | DRSC04870 |
| 88768 | 68801 | – | 1673 | 5494 | inactive | CCHa2-R (CCHamide-2 receptor) | DRSC04871 |
| 1.31e5 | 93792 | – | 2506 | 7576 | inactive | CG8157 | DRSC07085 |
| 96022 | 2.30e5 | – | 2653 | 8742 | inactive | CG33453 | DRSC05782 |
| 88640 | 67907 | – | 3892 | 3008 | inactive | Wdfy2 (WD repeat and FYVE domain containing 2) | DRSC02822 |
| 1.29e5 | 96885 | – | 2806 | 2568 | inactive | CG9106 | DRSC20154 |
| 1.04e5 | – | – | 2928 | 3753 | inactive | Agpat4 (1-Acylglycerol-3-phosphate O-acyltransferase 4) | DRSC10446 |
| 2.02e5 | 5.20e5 | 1.20e5 | 7604 | 30592 | inactive | chrb (charybde) | DRSC11335 |
| 86976 | 3.04e5 | – | 2449 | 13420 | inactive | CG6867 | DRSC20013 |
| 83761 | 65478 | – | 2504 | 5992 | inactive | CG7653 | DRSC01886 |
| 1.31e5 | 1.21e5 | – | 4331 | 3785 | inactive | IFT54 (Intraflagellar transport 54) | DRSC15469 |
| 5.29e5 | 1.30e5 | – | 25067 | 4182 | inactive | CG10208 | DRSC14211 |
| 83315 | 46181 | – | 1664 | 3213 | inactive | Drep1 (DNA fragmentation factor-related protein 1) | DRSC07527 |
| 76629 | 1.13e5 | – | 2673 | 3317 | inactive | CG12590 | DRSC12216 |
| 72577 | 1.60e5 | – | 2900 | 4472 | inactive | CG2698 | DRSC15447 |
| 90492 | 1.08e5 | – | 3608 | 3099 | inactive | Ets97D (Ets at 97D) | DRSC16665 |
| 1.03e5 | 54056 | – | 2540 | 4392 | inactive | CG12863 | DRSC06203 |
| 59672 | 1.94e5 | – | 1689 | 9259 | inactive | CG1738 | DRSC19772 |
| 55372 | 37703 | – | 2518 | 1720 | inactive | stwl (stonewall) | DRSC11400 |
| 1.17e5 | 1.97e5 | – | 4588 | 7993 | inactive | Fcp3C (Follicle cell protein 3C) | DRSC18665 |
| 40304 | 39336 | – | 2243 | 2116 | inactive | noc (no ocelli) | DRSC03580 |
